# According to paper doi:10.1101/2021.09.16.460581:
# Amino acid sequences for entries named in this document (tags omitted).
# UniProt P22216: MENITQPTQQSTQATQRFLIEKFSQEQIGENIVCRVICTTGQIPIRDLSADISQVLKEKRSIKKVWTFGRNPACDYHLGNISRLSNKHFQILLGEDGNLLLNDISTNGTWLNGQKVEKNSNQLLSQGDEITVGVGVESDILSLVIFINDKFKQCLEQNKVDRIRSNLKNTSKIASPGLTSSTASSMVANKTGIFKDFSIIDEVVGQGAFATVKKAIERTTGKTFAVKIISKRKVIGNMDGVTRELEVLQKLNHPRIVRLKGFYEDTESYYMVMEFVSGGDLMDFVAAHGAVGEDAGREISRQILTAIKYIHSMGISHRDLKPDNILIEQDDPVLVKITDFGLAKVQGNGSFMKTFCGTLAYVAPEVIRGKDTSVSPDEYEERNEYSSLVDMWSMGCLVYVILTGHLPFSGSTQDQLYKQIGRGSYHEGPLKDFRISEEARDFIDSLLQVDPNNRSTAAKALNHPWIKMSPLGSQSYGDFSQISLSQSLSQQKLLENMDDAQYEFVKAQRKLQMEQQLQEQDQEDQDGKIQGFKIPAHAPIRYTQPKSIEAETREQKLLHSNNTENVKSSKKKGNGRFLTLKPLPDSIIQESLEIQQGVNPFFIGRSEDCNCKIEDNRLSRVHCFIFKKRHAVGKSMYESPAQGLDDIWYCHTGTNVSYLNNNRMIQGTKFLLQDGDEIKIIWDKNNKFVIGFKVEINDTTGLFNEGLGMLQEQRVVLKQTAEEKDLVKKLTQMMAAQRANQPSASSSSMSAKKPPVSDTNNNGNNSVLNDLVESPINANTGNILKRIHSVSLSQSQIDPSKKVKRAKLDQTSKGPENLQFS
# UniProt Q00416: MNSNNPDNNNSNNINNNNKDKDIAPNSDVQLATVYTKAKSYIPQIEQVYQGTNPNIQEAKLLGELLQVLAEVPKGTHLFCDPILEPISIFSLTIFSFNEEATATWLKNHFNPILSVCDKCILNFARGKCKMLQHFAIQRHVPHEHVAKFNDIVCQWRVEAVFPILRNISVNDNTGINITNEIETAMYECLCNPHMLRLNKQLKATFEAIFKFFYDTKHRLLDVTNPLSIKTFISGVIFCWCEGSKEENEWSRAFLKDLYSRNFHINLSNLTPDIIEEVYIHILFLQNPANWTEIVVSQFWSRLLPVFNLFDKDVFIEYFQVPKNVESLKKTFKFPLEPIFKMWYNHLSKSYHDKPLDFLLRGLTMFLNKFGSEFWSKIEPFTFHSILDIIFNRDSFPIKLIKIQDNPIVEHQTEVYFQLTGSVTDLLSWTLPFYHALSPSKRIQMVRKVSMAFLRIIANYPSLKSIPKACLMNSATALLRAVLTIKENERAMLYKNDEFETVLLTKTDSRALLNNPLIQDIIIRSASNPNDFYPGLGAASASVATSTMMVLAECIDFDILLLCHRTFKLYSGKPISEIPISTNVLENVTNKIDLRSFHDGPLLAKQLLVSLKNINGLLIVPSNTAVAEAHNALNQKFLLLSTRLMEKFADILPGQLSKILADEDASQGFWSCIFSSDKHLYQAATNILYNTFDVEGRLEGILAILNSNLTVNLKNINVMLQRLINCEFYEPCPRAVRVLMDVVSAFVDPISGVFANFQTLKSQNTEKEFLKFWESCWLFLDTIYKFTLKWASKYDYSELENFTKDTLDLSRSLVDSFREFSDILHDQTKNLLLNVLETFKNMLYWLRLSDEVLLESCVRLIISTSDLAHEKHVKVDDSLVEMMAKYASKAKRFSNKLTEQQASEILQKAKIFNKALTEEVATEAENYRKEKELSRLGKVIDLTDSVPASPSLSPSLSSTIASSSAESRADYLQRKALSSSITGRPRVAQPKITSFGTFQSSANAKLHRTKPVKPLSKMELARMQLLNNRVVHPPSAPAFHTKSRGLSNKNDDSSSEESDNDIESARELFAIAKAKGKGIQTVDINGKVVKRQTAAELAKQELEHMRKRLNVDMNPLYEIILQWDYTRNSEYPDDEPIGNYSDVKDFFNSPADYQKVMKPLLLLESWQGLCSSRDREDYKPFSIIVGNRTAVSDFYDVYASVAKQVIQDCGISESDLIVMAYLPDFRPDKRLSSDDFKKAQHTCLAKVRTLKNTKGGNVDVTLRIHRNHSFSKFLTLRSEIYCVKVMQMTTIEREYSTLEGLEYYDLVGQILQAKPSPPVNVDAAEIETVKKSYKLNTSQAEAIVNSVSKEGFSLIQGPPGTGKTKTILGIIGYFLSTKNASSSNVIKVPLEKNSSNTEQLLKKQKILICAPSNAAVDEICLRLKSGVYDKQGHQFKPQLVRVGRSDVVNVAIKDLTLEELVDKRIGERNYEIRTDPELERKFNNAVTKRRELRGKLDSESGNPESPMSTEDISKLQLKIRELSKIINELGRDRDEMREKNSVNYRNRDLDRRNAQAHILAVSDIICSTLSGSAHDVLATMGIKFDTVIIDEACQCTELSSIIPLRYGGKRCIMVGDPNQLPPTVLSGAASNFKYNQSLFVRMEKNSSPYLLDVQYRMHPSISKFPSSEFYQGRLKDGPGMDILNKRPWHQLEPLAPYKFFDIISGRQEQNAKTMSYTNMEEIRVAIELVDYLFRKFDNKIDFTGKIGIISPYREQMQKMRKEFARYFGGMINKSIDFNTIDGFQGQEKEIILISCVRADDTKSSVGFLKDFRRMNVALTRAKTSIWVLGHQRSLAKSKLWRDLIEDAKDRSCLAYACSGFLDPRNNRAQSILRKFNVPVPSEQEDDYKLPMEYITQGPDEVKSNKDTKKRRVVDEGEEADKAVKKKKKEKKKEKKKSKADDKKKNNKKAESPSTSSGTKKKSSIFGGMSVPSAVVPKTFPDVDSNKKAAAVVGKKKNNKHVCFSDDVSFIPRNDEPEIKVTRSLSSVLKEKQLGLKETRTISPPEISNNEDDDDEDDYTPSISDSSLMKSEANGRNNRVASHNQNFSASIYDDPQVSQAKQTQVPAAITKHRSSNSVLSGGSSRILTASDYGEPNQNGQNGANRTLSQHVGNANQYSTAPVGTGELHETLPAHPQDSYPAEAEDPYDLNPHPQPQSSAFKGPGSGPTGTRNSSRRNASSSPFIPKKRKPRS
# UniProt P52286: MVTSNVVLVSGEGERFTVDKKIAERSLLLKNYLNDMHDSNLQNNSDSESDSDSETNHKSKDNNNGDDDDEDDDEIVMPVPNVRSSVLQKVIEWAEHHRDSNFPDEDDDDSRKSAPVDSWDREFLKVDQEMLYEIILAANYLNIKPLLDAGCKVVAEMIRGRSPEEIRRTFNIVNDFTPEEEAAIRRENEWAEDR
# UniProt P15790: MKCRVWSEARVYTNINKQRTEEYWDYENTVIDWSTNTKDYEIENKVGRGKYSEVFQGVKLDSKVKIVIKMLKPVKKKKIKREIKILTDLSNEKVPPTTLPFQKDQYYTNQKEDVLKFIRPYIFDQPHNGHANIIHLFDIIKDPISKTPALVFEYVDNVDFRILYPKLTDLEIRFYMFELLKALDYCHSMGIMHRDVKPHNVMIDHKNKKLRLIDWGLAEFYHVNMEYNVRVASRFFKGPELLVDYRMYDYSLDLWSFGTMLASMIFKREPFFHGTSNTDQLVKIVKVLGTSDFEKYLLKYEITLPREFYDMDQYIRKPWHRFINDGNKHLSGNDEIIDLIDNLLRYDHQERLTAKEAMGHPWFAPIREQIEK
# UniProt P15873: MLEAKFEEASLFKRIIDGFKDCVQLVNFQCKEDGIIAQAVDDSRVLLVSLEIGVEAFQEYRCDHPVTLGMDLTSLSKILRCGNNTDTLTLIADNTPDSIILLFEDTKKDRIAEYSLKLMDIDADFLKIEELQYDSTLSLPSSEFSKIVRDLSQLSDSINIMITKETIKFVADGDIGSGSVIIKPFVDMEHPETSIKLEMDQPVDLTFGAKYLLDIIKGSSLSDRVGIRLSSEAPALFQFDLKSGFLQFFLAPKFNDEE
# UniProt P21951: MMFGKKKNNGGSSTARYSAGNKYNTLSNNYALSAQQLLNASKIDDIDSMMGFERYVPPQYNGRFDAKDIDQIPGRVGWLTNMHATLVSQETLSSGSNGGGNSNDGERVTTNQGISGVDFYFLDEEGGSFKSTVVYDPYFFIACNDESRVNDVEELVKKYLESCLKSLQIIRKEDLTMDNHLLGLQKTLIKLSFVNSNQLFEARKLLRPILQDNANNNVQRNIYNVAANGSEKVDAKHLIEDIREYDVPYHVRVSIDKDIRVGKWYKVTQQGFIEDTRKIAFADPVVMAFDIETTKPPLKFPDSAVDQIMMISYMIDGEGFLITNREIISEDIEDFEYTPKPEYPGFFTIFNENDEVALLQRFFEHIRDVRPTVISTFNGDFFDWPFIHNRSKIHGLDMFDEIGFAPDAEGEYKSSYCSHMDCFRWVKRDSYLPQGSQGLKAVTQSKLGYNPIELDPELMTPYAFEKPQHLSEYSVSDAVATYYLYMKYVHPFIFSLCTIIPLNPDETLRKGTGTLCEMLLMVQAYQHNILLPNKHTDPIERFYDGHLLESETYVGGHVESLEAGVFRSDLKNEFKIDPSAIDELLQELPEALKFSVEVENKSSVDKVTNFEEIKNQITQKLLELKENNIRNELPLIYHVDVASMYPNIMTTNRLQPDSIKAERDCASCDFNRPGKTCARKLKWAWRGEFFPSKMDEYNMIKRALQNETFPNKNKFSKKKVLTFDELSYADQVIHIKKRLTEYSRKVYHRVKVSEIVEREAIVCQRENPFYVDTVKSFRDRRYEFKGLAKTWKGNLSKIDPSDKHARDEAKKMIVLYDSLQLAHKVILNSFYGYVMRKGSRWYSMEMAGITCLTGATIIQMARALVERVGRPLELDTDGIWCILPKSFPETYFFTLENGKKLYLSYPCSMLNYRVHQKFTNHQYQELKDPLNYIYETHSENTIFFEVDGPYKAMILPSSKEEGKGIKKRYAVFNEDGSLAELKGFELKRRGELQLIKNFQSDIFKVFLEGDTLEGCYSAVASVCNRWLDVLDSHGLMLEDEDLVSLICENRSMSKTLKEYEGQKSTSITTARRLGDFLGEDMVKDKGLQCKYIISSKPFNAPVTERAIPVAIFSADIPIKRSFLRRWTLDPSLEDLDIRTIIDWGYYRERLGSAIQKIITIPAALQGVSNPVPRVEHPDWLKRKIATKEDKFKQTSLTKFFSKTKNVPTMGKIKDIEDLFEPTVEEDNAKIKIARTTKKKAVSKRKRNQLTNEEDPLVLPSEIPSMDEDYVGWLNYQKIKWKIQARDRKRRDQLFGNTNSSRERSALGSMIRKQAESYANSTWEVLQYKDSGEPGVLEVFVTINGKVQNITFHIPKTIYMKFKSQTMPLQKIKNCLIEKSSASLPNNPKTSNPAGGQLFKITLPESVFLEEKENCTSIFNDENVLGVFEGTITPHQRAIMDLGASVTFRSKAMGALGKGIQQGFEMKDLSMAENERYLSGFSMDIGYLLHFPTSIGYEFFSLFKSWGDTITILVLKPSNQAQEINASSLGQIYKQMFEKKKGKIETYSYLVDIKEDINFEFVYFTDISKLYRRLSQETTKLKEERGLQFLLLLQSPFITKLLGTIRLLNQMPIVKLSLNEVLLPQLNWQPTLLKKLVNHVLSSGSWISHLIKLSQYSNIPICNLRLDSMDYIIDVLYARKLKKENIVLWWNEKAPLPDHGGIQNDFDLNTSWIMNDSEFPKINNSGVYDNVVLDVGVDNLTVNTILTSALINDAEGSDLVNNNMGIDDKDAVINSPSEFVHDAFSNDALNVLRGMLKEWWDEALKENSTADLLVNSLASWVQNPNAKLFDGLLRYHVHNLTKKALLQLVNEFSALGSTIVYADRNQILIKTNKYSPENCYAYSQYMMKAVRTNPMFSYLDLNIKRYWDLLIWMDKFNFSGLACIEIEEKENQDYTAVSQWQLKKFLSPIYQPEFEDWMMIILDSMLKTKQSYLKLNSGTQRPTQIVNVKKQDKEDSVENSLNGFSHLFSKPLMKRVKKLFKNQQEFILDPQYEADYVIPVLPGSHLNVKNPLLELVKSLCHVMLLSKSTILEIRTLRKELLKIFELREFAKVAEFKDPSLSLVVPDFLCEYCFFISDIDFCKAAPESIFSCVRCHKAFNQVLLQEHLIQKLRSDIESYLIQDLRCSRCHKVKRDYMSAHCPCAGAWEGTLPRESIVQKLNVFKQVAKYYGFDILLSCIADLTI
# UniProt Q12329: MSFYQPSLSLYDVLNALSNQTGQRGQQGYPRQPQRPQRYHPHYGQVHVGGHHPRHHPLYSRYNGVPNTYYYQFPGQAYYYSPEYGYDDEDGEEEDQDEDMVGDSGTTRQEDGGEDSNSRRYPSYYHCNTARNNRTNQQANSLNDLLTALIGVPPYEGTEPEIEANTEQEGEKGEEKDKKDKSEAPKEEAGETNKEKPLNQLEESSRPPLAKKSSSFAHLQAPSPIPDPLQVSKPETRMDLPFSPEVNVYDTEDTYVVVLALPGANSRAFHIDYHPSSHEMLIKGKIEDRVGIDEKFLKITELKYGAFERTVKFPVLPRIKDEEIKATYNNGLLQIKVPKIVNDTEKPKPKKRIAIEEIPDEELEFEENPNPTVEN
# T1: Mrc1-YFP (S. cerevisiae) (UniProt P25588)
# T1 sequence: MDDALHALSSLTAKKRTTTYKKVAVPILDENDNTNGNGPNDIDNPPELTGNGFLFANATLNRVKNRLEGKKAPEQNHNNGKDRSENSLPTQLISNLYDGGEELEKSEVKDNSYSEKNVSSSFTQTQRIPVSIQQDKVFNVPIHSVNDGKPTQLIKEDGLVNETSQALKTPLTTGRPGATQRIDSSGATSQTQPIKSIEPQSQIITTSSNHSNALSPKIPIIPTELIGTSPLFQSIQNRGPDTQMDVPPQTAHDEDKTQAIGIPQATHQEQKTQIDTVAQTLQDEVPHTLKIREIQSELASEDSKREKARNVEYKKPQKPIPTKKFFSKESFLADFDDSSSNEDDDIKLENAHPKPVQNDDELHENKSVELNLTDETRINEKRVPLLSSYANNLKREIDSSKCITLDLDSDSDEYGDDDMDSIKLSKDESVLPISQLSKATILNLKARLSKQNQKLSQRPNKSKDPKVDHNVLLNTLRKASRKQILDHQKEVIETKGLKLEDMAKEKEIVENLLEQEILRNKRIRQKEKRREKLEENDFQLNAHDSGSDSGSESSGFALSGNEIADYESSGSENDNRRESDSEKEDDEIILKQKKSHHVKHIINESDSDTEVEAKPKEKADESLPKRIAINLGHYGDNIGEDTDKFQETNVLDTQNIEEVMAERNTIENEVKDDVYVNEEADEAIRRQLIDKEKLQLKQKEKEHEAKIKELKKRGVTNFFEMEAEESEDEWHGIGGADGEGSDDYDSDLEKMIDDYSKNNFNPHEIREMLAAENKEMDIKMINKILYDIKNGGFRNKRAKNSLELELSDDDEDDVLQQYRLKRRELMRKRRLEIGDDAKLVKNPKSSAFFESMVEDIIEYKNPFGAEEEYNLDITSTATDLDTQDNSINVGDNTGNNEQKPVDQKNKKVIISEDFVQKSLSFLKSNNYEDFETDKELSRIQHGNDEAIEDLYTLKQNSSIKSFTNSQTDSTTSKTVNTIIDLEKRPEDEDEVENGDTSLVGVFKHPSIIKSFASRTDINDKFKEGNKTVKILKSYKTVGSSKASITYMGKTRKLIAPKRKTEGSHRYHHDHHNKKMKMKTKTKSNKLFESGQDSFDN
# Biological target: T1, Mrc1-YFP (S. cerevisiae)
# Experiment: affinity purification with mass spectrometry
row,binding,Molecule
1,binds,Ydj1 (from UniProt P25491 1-409)
2,binds,Rad53 (from UniProt P22216 1-821)
3,binds,Rpn11 (from UniProt P43588 1-306)
4,binds,Mcm2 (from UniProt P29469 1-868)
5,binds,Sen1 (from UniProt Q00416 1-2231)
6,binds,Skp1 (from UniProt P52286 1-194)
7,binds,Mcm6 (from UniProt P53091 1-1017)
8,binds,Smc3 (from UniProt P47037 1-1230)
9,binds,Cka1 (from UniProt P15790 1-372)
10,binds,Mcd1 (from UniProt Q12158 1-566)
11,binds,PCNA (Pol30) (from UniProt P15873 1-258)
12,binds,Pol2 (from UniProt P21951 1-2222)
13,binds,Cdc48 (from UniProt P25694 1-835)
14,binds,Mcm3 (from UniProt P24279 1-971)
15,binds,Ssa4 (from UniProt P22202 1-642)
16,binds,Hsp42 (from UniProt Q12329 1-375)
17,binds,"Tof1 (protein, UniProt P53840 1-1238) MSADLQQGTTNAADFSLTVLRARIALLATAIGGPDYTSQIDPPPYKLGDDCLACLKDLKRWFKLVDDQQKRWDVAMAVAEYRILTDDLLPILIDWENKCSLAAKLAKNNPDHEEFRNKAYYDKIALNCLQLLVLMTWPLIVTEQSSSNQITLYGELKKHQLVYKKTILSMESGKVLRAAIRLALDVIKIDRLSRTPRDNMVLKLVLNFFRNVIAIEPGEFTINTKKSMPKKGITSIDTLPPNVSMDDISLNTVISSFHKNKVFGFLLTLTSSLSKEFDQDFINIPLLEIMFYFTKDVNQELLFPRQFETGTHSKVVNKNESSSANNIVTSAGFELSKLLQKEHQMRKNVIKHTSARHSRFGGLLSIQTPDKTRLTVSGSQALVDEKIALQKLDDSKKWNKRIIKKHQSVAAEGLPNSLLNSQTGKAIFFTESNGKHFKEFINNFIDSGFNILLHSVTNYFTTEQDRMVTLEQVEYLLFFAWFVKYQLLRSKIDNSADIKQVSEALKEVTFILVSSLLRSAYDLKNWTVTHAGMIAFNELLNLVSRTKAAQEEDSTDIEFIVSRLFSDERIQLLSNLPKIGSKYSLQFMKSCIELTHSVLKVLEQYSDDKTLVIEGKSRRQKKFNISEGDITKLIEEENVDRDEALDILTSSLRSIEVNFQKVQANYMTEPVIETYINFLERFRELEDDSIKKVFSFFHRVFVQAKEQALLFRFDLIILLREMLSPDGLDRMSRSRKYVSQFSDYFLARLKKRLKKSPAWFVGLLFPPLHNSEVGFYQRYGEYNVLNNESMYAAPASQFKPIPDEEALPPSILLDMKYGVLVSTLLDDGKTELLDQLLKHITHTLDIFKSWLTVNVNAGKETVNPPNEYFTLTGVLNNDPIFKDKDYRALLLLIGYSIPRKINEPCFLPGTVEVSDLTVSCELVKKYLSTPFETPNGLPSSSYLLRVRSEKDSFSHNEQDGWEGDDDYDYNDPYIVPDDQILSKSDAAYFKDLDNNASDKLKGTKFSKGIARSKKKDKRKRRKGEAKTNLPMFGDQDDERPQTVRERHGVFSKEFISDSEDDEDLMNPIFFENETYMRWLLDKNNGQLTEDRYIQFAKFAAERMNNGGVVTGDYTSLFGGSIPSIESIRATESSSFAPDKSLISLASHVASEMSIFDVNNNNNNQLSDDDVNSESRNSLGSSQPSNSQNMFQSEVYSRKESTKRSLEASAADESDEDEEAIRLFGKKSRVVLSQGDSDD"
18,binds,"Psf2 (protein, UniProt P40359 1-213) MSLPAHLQQTFSPEEIQFIVENEPIKIFPRITTRQKIRGDDRGTGNHTRWQLITTDDKALNNMVAMRSTEVVLWIALLLKQQSKCSIVAPQWLTTKELDRKIQYEKTHPDRFSELPWNWLVLARILFNKAKDDFHDPIHELRGKIQDLREIRQIKVLKGLKYLNESHLQLDNLSLLEINELRPFITEIMDKLREIHTASLTAGTENDEEEFNI"
19,binds,"Csm3 (protein, UniProt Q04659 1-317) MDQDFDSLLLGFNDSDSVQKDPTVPNGLDGSVVDPTIADPTAITARKRRPQVKLTAEKLLSDKGLPYVLKNAHKRIRISSKKNSYDNLSNIIQFYQLWAHELFPKAKFKDFMKICQTVGKTDPVLREYRVSLFRDEMGMSFDVGTRETGQDLERQSPMVEEHVTSAEERPIVADSFAQDKRNVNNVDYDNDEDDDIYHLSYRNRRGRVLDERGNNETVLNNVVPPKEDLDALLKTFRVQGPVGLEENEKKLLLGWLDAHRKMEKGSMTEEDVQLIQSLEEWEMNDIEGQHTHYDLLPGGDEFGVDQDELDAMKEMGF"
20,binds,"Pri1 (protein, UniProt P10363 1-409) MTNSVKTNGPSSSDMEYYYKSLYPFKHIFNWLNHSPKPSRDMINREFAMAFRSGAYKRYNSFNSVQDFKAQIEKANPDRFEIGAIYNKPPRERDTLLKSELKALEKELVFDIDMDDYDAFRTCCSGAQVCSKCWKFISLAMKITNTALREDFGYKDFIWVFSGRRGAHCWVSDKRARALTDVQRRNVLDYVNVIRDRNTDKRLALKRPYHPHLARSLEQLKPFFVSIMLEEQNPWEDDQHAIQTLLPALYDKQLIDSLKKYWLDNPRRSSKEKWNDIDQIATSLFKGPKQDSHIIKLRECKEDLVLMTLYPKLDVEVTKQTIHLLKAPFCIHPATGNVCVPIDESFAPEKAPKLIDLQTEMEKNNDVSLTALQPFINQFQAYVSSLLKNELGSVKREREDDDEPASLDF"
21,binds,"Psf3 (protein, UniProt Q12146 1-194) MGYYDIDDVLADGTEFPCKFQYDIPGLGYLENNPGRPITKNTKLSLPLWLARILAIVGGDEALVDEEPVPFVELLPPDMFSTKVMNAIKTDPVALDLHSINSHFFSLAIKWIMLFSEKELANVVSELLLQRAQELNHHASSLSIDLNADSTGKNSANTNIATSTFLLKLEEMEKEIYKKSHESYKDTKRWMFKK"
22,binds,"Ctf4 (protein, UniProt Q01454 1-927) MVSVIDKLVFDFGGKTLVSLAPDNNTLCVANKNGLTKILKTNNPEEEPETLDSSKLVSSIKCYSNSHFLMTTMQGDALRYNIDSSQEELLARFALPLRDCCVIHSGKMAVFGGDDLELILLELDDETHKKHAIKIDEQVSQISYNSQMNILAVSMINGKVQIFSLTSTIPNKVHELNDYIVANSYDDTHRDKILSNMMDDIDKDNDNDLSETADPDENNVADPEFCAANRICTRVAWHPKGLHFALPCADDTVKIFSIKGYSLQKTLSTNLSSTKAHFIDLQFDPLRGTYIAAVDLNNKLTVWNWETSEIHYTREFKRKITNIAWKIQADSKTLDLVLGTWSGSIAIVQNLAESVVSNIPDQSVAESSTKHGLFVDSESDLENLEGNDDINKSDKLFSDITQEANAEDVFTQTHDGPSGLSEKRKYNFEDEEDFIDDDDGAGYISGKKPHNEHSYSRVHKTHSFPISLANTGKFRYMPFSPAGTPFGFTDRRYLTMNEVGYVSTVKNSEQYSITVSFFDVGRFREYHFEDLFGYDLCFLNEKGTLFGQSKTGQIQYRPHDSIHSNWTKIIPLQAGERITSVAATPVRVIVGTSLGYFRSFNQFGVPFAVEKTSPIVALTAQNYRVFSVHYSQFHGLSYSLSELGTSSKRYYKRECPLPMSLPNINSDMKKDANLDYYNFNPMGIKSLFFSSYGDPCIFGSDNTLLLLSKWRSPEESKWLPILDSNMEIWKMSGGKETTDIHVWPLALAYDTLNCILVKGKHIWPEFPLPLPSEMEIRMPVFVKSKLLEENKAILNKKNEIGADTEAEEGEEDKEIQIPVSMAAEEEYLRSKVLSELLTDTLENDGEMYGNENEVLAALNGAYDKALLRLFASACSDQNVEKALSLAHELKQDRALTAAVKISERAELPSLVKKINNIREARYEQQLK"
23,binds,"Cdc45 (protein, UniProt Q08032 1-650) MYYGISQFSEAYNKILRNSSSHSSCQLVIFVSCLNIDALCATKMLSLLFKKQLVQSQIVPIFGYSELRRHYSQLDDNINSLLLVGFGGVIDLEAFLEIDPQEYVIDTDEKSGEQSFRRDIYVLDAHRPWNLDNIFGSQIIQCFDDGTVDDTLGEQKEAYYKLLELDEESGDDELSGDENDNNGGDDEATDADEVTDEDEEDEDETISNKRGNSSIGPNDLSKRKQRKKQIHEYEGVLEEYYSQGTTVVNSISAQIYSLLSAIGETNLSNLWLNILGTTSLDIAYAQVYNRLYPLLQDEVKRLTPSSRNSVKTPDTLTLNIQPDYYLFLLRHSSLYDSFYYSNYVNAKLSLWNENGKKRLHKMFARMGIPLSTAQETWLYMDHSIKRELGIIFDKNLDRYGLQDIIRDGFVRTLGYRGSISASEFVEALTALLEVGNSTDKDSVKINNDNNDDTDGEEEEDNSAQKLTNLRKRWVSNFWLSWDALDDRKVELLNRGIQLAQDLQRAIFNTGVAILEKKLIKHLRIYRLCVLQDGPDLDLYRNPLTLLRLGNWLIECCAESEDKQLLPMVLASIDENTDTYLVAGLTPRYPRGLDTIHTKKPILNNFSMAFQQITAETDAKVRIDNFESSIIEIRREDLSPFLEKLTLSGLL"

# No constants are given. Whether binding was seen depends on the method and setting. Binding seen in cells or lysates may run through a third protein. A yes stands for co-enrichment or nearness to the bait. Other partners may have been found. Tags and fused reporters may be left off the sequences shown.
